Record: PubChem BioAssay AID1259308 (NCATS, 2017)
Screen: 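Genes whose loss raises luciferase production in HEK293 cells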 (primary screen). Cell system: human HEK293 embryonic kidney cells stably expressing firefly luciferase (HEK-CMV-Luc2-Hygro). Knock-down reagent: single siRNA against human genes, 0.8 pmol siRNA per well. Time to read-out: 72 h. Detection: 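Reporter luminescence and viable-cell signal on separate replicate plates, given as percent of non-targeting control and median/MAD z-scores, plus per-cell luciferase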. Direction: total luciferase, z-score and total luciferase, % of control: higher = more reporter protein produced; luciferase per cell, z-score: higher = more reporter output per viable cell; viable cells, % of control: higher = more viable cells. Call rule: 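An siRNA counts as active if its total luciferase robust z-score exceeds 3; genes with two or more such siRNAs out of three were retested with fresh siRNAs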. Calls: active = raised luciferase; inactive = no rise.
This is one part, drawn at random, of about 59,000 deposited reagents. About 1,510 of all reagents (2.6%) were called active. 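Calls use total luciferase alone and ignore viability, so some active siRNAs may act by altering cell number.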 A number with no mark means an inactive call.

| total luciferase, z-score | total luciferase, % of control | luciferase per cell, z-score | viable cells, % of control | target gene | PubChem SID |
| --- | --- | --- | --- | --- | --- |
| -1.94 | 43.2 | -2.2 | 86.3 | DDO (D-aspartate oxidase) | SID160720245 |
| -1.42 | 53.6 | -2.62 | 119 | DDO (D-aspartate oxidase) | SID160720246 |
| -2.16 | 39 | -3.73 | 116 | DDO (D-aspartate oxidase) | SID160720247 |
| -0.343 | 75.1 | -0.398 | 93.2 | NFE4 (nuclear factor, erythroid 4) | SID160746787 |
| -1.86 | 44.9 | -1.8 | 80.5 | NFE4 (nuclear factor, erythroid 4) | SID160746788 |
| 0.192 | 85.7 | 0.346 | 87.4 | NFE4 (nuclear factor, erythroid 4) | SID160746790 |
| 0.695 | 95.7 | 0.346 | 97.6 | LACTB (lactamase beta) | SID160754915 |
| -1.04 | 61.3 | -1.32 | 97 | LACTB (lactamase beta) | SID160754916 |
| -0.577 | 70.4 | 0.794 | 63.8 | LACTB (lactamase beta) | SID160754917 |

The list goes on; the last 3 above are carried over.
| total luciferase, z-score | total luciferase, % of control | luciferase per cell, z-score | viable cells, % of control | target gene | PubChem SID |
| --- | --- | --- | --- | --- | --- |
| 0.695 | 95.7 | 0.346 | 97.6 | LACTB (lactamase beta) | SID160754915 |
| -1.04 | 61.3 | -1.32 | 97 | LACTB (lactamase beta) | SID160754916 |
| -0.577 | 70.4 | 0.794 | 63.8 | LACTB (lactamase beta) | SID160754917 |
| 1.05 | 103 | 0.695 | 95.7 | SLC10A5 | SID160764925 |
| 0.0803 | 83.5 | -0.251 | 99.7 | SLC10A5 | SID160764926 |
| 1.8 | 118 | 1.17 | 96.6 | SLC10A5 | SID160764927 |
| 0.301 | 87.9 | 0.417 | 88 | MFAP2 (microfibril associated protein 2) | SID160777180 |
| 1.15 | 105 | 0.526 | 102 | MFAP2 (microfibril associated protein 2) | SID160777182 |
| 1.4 | 110 | 0.626 | 104 | MFAP2 (microfibril associated protein 2) | SID160777183 |
| 0.23 | 86.5 | -0.664 | 115 | PDGFD (platelet derived growth factor D) | SID160750350 |
| 1.18 | 105 | 0.0982 | 115 | PDGFD (platelet derived growth factor D) | SID160750351 |
| 1.58 | 113 | 1.37 | 88.2 | PDGFD (platelet derived growth factor D) | SID160750352 |
| 0.878 | 99.4 | -0.0934 | 114 | QPCTL (glutaminyl-peptide cyclotransferase like) | SID160742222 |
| -1.2 | 57.9 | -1.42 | 94 | QPCTL (glutaminyl-peptide cyclotransferase like) | SID160742223 |
| -0.123 | 79.4 | -0.532 | 102 | QPCTL (glutaminyl-peptide cyclotransferase like) | SID160742226 |
| -0.324 | 75.4 | -0.746 | 103 | PRSS58 (serine protease 58) | SID160730616 |
| 0.0528 | 82.9 | -0.324 | 101 | PRSS58 (serine protease 58) | SID160757487 |
| -1.02 | 61.5 | -0.734 | 83.4 | PRSS58 (serine protease 58) | SID160757488 |
